{"sequences": {"note": "Chains of the proteins cited; added tags and fusions are not shown.", "UniProt P38398": "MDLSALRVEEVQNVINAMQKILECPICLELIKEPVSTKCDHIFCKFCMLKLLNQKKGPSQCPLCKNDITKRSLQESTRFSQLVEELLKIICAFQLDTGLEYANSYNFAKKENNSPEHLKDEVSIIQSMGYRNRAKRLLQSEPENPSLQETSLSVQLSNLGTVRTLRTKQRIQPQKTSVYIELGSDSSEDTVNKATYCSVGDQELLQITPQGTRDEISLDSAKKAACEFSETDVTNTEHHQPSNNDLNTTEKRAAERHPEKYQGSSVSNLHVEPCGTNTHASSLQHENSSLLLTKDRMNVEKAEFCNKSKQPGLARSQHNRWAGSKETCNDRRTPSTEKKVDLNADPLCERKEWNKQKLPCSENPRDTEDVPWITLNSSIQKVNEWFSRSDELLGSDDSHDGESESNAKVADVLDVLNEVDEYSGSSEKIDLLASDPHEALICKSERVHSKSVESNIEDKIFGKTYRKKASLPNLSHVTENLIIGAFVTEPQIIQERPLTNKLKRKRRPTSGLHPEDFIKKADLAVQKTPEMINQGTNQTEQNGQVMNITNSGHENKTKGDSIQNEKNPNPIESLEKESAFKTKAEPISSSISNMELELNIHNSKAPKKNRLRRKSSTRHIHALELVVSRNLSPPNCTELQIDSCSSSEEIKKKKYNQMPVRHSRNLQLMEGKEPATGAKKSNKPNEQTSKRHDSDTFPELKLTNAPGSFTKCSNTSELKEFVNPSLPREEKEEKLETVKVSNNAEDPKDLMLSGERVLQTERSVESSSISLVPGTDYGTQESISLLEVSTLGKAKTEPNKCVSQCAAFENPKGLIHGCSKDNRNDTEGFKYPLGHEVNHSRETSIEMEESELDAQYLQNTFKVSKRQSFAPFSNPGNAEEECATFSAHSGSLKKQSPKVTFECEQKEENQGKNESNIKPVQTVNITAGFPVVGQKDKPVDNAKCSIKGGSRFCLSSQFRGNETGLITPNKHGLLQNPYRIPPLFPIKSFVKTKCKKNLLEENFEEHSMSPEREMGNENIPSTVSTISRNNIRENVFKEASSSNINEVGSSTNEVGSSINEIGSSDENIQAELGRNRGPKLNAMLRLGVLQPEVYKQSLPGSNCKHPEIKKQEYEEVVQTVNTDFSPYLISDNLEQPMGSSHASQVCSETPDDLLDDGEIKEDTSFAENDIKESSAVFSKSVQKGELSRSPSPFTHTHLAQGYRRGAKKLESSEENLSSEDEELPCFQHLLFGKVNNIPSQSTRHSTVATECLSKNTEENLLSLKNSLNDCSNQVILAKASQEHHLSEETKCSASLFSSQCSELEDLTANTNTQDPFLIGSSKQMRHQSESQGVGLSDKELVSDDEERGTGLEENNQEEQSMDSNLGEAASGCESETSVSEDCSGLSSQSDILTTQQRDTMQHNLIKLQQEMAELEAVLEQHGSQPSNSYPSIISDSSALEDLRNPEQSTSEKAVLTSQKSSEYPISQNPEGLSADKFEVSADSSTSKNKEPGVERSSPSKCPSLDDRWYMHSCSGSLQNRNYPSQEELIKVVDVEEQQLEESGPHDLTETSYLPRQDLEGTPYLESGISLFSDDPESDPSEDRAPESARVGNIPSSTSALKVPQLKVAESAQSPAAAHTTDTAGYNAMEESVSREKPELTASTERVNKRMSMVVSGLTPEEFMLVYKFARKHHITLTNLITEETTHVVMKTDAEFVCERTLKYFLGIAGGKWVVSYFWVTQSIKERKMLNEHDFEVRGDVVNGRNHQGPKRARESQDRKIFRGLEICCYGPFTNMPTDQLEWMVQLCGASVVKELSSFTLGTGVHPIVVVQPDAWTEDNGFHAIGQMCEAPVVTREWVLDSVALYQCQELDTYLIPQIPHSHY"}, "source": "paper PMC8986865", "key": {"[1]": {"target": "BRCA1, endogenous (human (endogenous in HeLa)) (UniProt P38398)", "test": "co-IP; HeLa whole-cell lysates (RIPA buffer), cells untreated or 5 Gy IR for 3 h; immunoprecipitation with anti-HspBP1 (Fig. 3A) or anti-BRCA1 (Fig. 3B), western blot"}, "full length HA-BRCA1": {"target": "full length HA-BRCA1 (UniProt P38398)", "test": "co-IP; HEK293T co-transfected with HA-BRCA1 and GFP-HspBP1, 5 Gy IR for 3 h; whole-cell lysates, immunoprecipitation with anti-HA, western blot"}}, "note": "Results are given in words; binding and its absence hold for the method and conditions named. In cells and extracts the contact can be indirect. Some results given as binding are weak or reduced against the parent protein; the word gives no strength. For some assays here: Where a sequence is shown, tags or fusion partners need not be part of it."}
{"binder": "Hsp70-binding protein 1 (HspBP1), endogenous (protein, UniProt Q9NZL4 1-359) MSDEGSRGSRLPLALPPASQGCSSGGGGGGSSAGGSGNSRPPRNLQGLLQMAITAGSEEPDPPPEPMSEERRQWLQEAMSAAFRGQREEVEQMKSCLRVLSQPMPPTAGEAEQAADQQEREGALELLADLCENMDNAADFCQLSGMHLLVGRYLEAGAAGLRWRAAQLIGTCSQNVAAIQEQVLGLGALRKLLRLLDRDACDTVRVKALFAISCLVREQEAGLLQFLRLDGFSVLMRAMQQQVQKLKVKSAFLLQNLLVGHPEHKGTLCSMGMVQQLVALVRTEHSPFHEHVLGALCSLVTDFPQGVRECREPELGLEELLRHRCQLLQQHEEYQEELEFCEKLLQTCFSSPADDSMDR", "values": [{"measurement": "binding", "setting": "[1]", "value": "binds"}]}
{"binder": "GFP-HspBP1 (protein, UniProt Q9NZL4 1-359) MSDEGSRGSRLPLALPPASQGCSSGGGGGGSSAGGSGNSRPPRNLQGLLQMAITAGSEEPDPPPEPMSEERRQWLQEAMSAAFRGQREEVEQMKSCLRVLSQPMPPTAGEAEQAADQQEREGALELLADLCENMDNAADFCQLSGMHLLVGRYLEAGAAGLRWRAAQLIGTCSQNVAAIQEQVLGLGALRKLLRLLDRDACDTVRVKALFAISCLVREQEAGLLQFLRLDGFSVLMRAMQQQVQKLKVKSAFLLQNLLVGHPEHKGTLCSMGMVQQLVALVRTEHSPFHEHVLGALCSLVTDFPQGVRECREPELGLEELLRHRCQLLQQHEEYQEELEFCEKLLQTCFSSPADDSMDR", "values": [{"measurement": "binding", "setting": "full length HA-BRCA1", "value": "binds"}]}
